Reference: patent US20120231996A1 (priority 2006, published 2012)
Square brackets hold non-standard residues; d marks the D form. Ends that are not written are not given here.

Assay: general procedure: Fmoc solid-phase peptide synthesis; 2-chlorotrityl polystyrene resin
Details: cyclisation step
[1] = thioether ring, sequence written open

| Substance | outcome | outcome [1] |
| --- | --- | --- |
| C[dP]GW | Exclusive disulfide |  |
| Cys-Leu-LPro-Trp |  | Exclusive disulfide |
| Cys-Gly-Gly-Trp |  | Exclusive disulfide |
| Cys-Gly-LPro-Trp |  | Exclusive disulfide |
| CG[dP]W | Exclusive disulfide |  |
